Experimental data taken from PMC6468676, “The Protein Tyrosine Phosphatase H1 PTPH1 Supports Proliferation of Keratinocytes and is a Target of the Human Papillomavirus Type 8 E6 Oncogene” (Cells, 2019).
These are yes or no findings as the source states them, for the method shown. Binding seen in cells or lysates may run through a third protein. Some results given as binding are weak or reduced against the parent protein; the word gives no strength. For some of these results: Sequences can lack the tags named with a protein. One block for each molecule: values may come before it.

Amino acid sequences for entries named in this document (tags omitted).
UniProt P06428: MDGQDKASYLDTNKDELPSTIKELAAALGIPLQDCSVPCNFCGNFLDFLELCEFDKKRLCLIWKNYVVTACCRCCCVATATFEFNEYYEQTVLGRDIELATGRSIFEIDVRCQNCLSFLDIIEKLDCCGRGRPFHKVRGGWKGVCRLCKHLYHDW

How the values were obtained:
[1] = molecular target: FLAG-tagged HPV8E6 (E6 oncoprotein of human papillomavirus type 8), wild type (human papillomavirus type 8) (UniProt P06428); test: co-IP; C33A cells co-transfected with Myc-PTPH1 (wt or deletion mutants) and pXJ41-FLAG-HPV8E6 (wt or point mutants); extracts incubated with FLAG beads, co-precipitated Myc-PTPH1 detected by WB
[2] = molecular target: T1, FLAG-p38γ (mitogen activated protein kinase MAPK12) (UniProt P53778); test: co-IP; extracts from C33A cells expressing FLAG-p38γ and Myc-PTPH1, with or without HA-HPV8E6; FLAG beads; blots developed with epitope tag antibodies
T1 sequence: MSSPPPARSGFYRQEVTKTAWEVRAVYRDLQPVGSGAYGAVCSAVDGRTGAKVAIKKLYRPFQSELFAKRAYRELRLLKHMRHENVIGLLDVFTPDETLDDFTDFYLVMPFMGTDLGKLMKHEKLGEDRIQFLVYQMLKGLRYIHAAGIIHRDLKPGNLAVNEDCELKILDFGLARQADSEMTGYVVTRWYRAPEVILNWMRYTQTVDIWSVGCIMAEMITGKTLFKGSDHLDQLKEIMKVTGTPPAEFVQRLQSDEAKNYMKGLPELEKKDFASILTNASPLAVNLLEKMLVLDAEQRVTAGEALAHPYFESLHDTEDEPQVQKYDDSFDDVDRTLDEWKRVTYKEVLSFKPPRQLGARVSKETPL

GST-PTPH1 = GST-PTPH1 (UniProt P26045); test: pull-down; bacterially expressed, purified GST-PTPH1 incubated with extracts from cells expressing FLAG-p38γ alone or together with FLAG-HPV8E6; blot developed with FLAG antibody; only the target purified

Molecule: Myc-tagged protein tyrosine phosphatase H1 (PTPH1), full length (from UniProt P26045 1-913) (enzyme)
- binding [1]: binds

Molecule: Myc-PTPH1ΔBand4.1ΔPTPc (central amino acids 334-669) (from UniProt P26045 334-669) (domain or fragment)
- binding [1]: binds

B1: Myc-tagged protein tyrosine phosphatase H1 (PTPH1), full length (enzyme, UniProt P26045 1-913, looked up)
chain: MTSRLRALGGRINNIRTSELPKEKTRSEVICSIHFLDGVVQTFKVTKQDTGQVLLDMVHNHLGVTEKEYFGLQHDDDSVDSPRWLEASKAIRKQLKGGFPCTLHFRVRFFIPDPNTLQQEQTRHLYFLQLKMDICEGRLTCPLNSAVVLASYAVQSHFGDYNSSIHHPGYLSDSHFIPDQNEDFLTKVESLHEQHSGLKQSEAESCYINIARTLDFYGVELHSGRDLHNLDLMIGIASAGVAVYRKYICTSFYPWVNILKISFKRKKFFIHQRQKQAESREHIVAFNMLNYRSCKNLWKSCVEHHTFFQAKKLLPQEKNVLSQYWTMGSRNTKKSVNNQYCKKVIGGMVWNPAMRRSLSVEHLETKSLPSRSPPITPNWRSPRLRHEIRKPRHSSADNLANEMTYITETEDVFYTYKGSLAPQDSDSEVSQNRSPHQESLSENNPAQSYLTQKSSSSVSPSSNAPGSCSPDGVDQQLLDDFHRVTKGGSTEDASQYYCDKNDNGDSYLVLIRITPDEDGKFGFNLKGGVDQKMPLVVSRINPESPADTCIPKLNEGDQIVLINGRDISEHTHDQVVMFIKASRESHSRELALVIRRRAVRSFADFKSEDELNQLFPEAIFPMCPEGGDTLEGSMAQLKKGLESGTVLIQFEQLYRKKPGLAITFAKLPQNLDKNRYKDVLPYDTTRVLLQGNEDYINASYVNMEIPAANLVNKYIATQGPLPHTCAQFWQVVWDQKLSLIVMLTTLTERGRTKCHQYWPDPPDVMNHGGFHIQCQSEDCTIAYVSREMLVTNTQTGEEHTVTHLQYVAWPDHGVPDDSSDFLEFVNYVRSLRVDSEPVLVHCSAGIGRTGVLVTMETAMCLTERNLPIYPLDIVRKMRDQRAMMVQTSSQYKFVCEAILRVYEEGLVQMLDPS
- binding [2]: binds

- binding (GST-PTPH1): binds
B2: FLAG-p38γ (mitogen activated protein kinase MAPK12) (enzyme, UniProt P53778 1-367)
chain: T1 sequence
